# Reference: PubChem BioAssay AID330 (DTP/NCI, 2004)
# The list does not hold the whole screen: it is rich in T/C values a quarter to a half above the control, in often repeated tests (any T/C) and in doses without a T/C. Further doses and runs are listed elsewhere. T/C: endpoint of the treated group in % of that of the vehicle group. Some entries give survivors of the animals treated and no T/C: the source files T/C as zero there, which appears to mark a toxic dose or a test without result, not a measured value. Some survivor counts are full or nearly so, which does not show that the dose was tolerated: survival well below the control is almost never listed, so the zero probably covers shortened survival too. Survivors were counted at the toxicity check, usually on the fifth day, unless a day is given; later deaths do not show. Schedule codes are those of the source, taken here to give the interval after Q, in days (D) or hours (H), and the number of doses after X. Some entries were tested several times; the results are listed from low to high. Some structures stand for samples that the source files as different forms (salt, stereo form or complex); doses refer to the form tested. Where survival is the endpoint, this PubChem deposit counts one and a half times the control or more as active, and values a quarter to a half above the control carry no call in these data; other NCI protocols may use other cut-offs. Some T/C values carry the count of animals alive at the toxicity check (mostly the fifth day); without a count, all were alive then.
# Test system: P388 leukemia ip, CD2F1 mice, survival T/C
# Assay: NCI In Vivo Anticancer Drug Screen. Data for tumor model P388 Leukemia (intraperitoneal) in CD2F1 (CDF1) mice
# Conditions: T/C endpoint: median survival time, higher T/C = longer survival
# [1] = dose: 100.0 mg/kg/injection, schedule: Q04DX003 (ip), vehicle: saline
# [2] = dose: 200.0 mg/kg/injection, schedule: Q04DX003 (ip), vehicle: saline
# [3] = dose: 400.0 mg/kg/injection, schedule: Q04DX003 (ip), vehicle: saline
# [4] = dose: 200.0 mg/kg/injection, schedule: Q01DX005 (ip), vehicle: saline
# [5] = dose: 200.0 mg/kg/injection, schedule: Q01DX005 (ip), vehicle: saline with Tween-80
# [6] = dose: 6.25 mg/kg/injection, schedule: Q01DX009 (ip), vehicle: saline
# [7] = dose: 100.0 mg/kg/injection, schedule: Q01DX005 (ip), vehicle: Klucel (hydroxypropylcellulose) (HPC)
smiles,measurement,setting,value
N#[N+]N=c1c(=NN=[N-])c(=O)c2ccccc2c1=O,T/C,"dose: 25.0 mg/kg/injection, schedule: Q01DX001 (ip), vehicle: saline with Tween-80",137 % of control [5 of 6 alive]
same,survivor count,"dose: 50.0 mg/kg/injection, schedule: Q01DX001 (ip), vehicle: saline with Tween-80",0 of 6
same,survivor count,"dose: 100.0 mg/kg/injection, schedule: Q01DX001 (ip), vehicle: saline with Tween-80",0 of 6
same,survivor count,"dose: 200.0 mg/kg/injection, schedule: Q01DX001 (ip), vehicle: saline with Tween-80",0 of 6
C(=C\c1cc2ccc(C3=NCCN3)cc2[nH]1)/c1ccc(Oc2ccc(C3=NCCN3)cc2)cc1,T/C,"dose: 6.25 mg/kg/injection, schedule: Q04DX003 (ip), vehicle: saline",128 % of control
same,T/C,"dose: 12.5 mg/kg/injection, schedule: Q04DX003 (ip), vehicle: saline",135 % of control
same,T/C,"dose: 25.0 mg/kg/injection, schedule: Q04DX003 (ip), vehicle: saline",147 % of control
same,survivor count,[1],0 of 6
same,survivor count,[2],0 of 6
same,survivor count,[3],0 of 6
O=C1OCCC12C(c1ccccc1)C1(CCOC1=O)C2c1ccccc1 (stereo not given),survivor count,"dose: 15.0 mg/kg/injection, schedule: Q01DX005 (ip), vehicle: Klucel (hydroxypropylcellulose) (HPC)",6 of 6
same,survivor count,"dose: 30.0 mg/kg/injection, schedule: Q01DX005 (ip), vehicle: Klucel (hydroxypropylcellulose) (HPC)",6 of 6
same,survivor count,"dose: 60.0 mg/kg/injection, schedule: Q01DX005 (ip), vehicle: Klucel (hydroxypropylcellulose) (HPC)",6 of 6
same,survivor count,"dose: 120.0 mg/kg/injection, schedule: Q01DX005 (ip), vehicle: Klucel (hydroxypropylcellulose) (HPC)",5 of 6
COc1cccc2c1C(=O)c1c(O)c3c(c(O)c1C2=O)C[C@@](O)(C(=O)CSc1ccccn1)C[C@@H]3OC1CC(N)C(O)C(C)O1 (stereo not given in full),T/C,"dose: 1.56 mg/kg/injection, schedule: Q01DX009 (ip), vehicle: water, evaluated on day 30",131 % of control
same,T/C,"dose: 1.56 mg/kg/injection, schedule: Q01DX009 (ip), vehicle: water, evaluated on day 45",133 % of control
same,T/C,"dose: 3.13 mg/kg/injection, schedule: Q01DX009 (ip), vehicle: water, evaluated on day 30",132 % of control
same,T/C,"dose: 3.13 mg/kg/injection, schedule: Q01DX009 (ip), vehicle: water, evaluated on day 45",145 % of control
same,T/C,"dose: 6.25 mg/kg/injection, schedule: Q01DX009 (ip), vehicle: water, evaluated on day 30",137 % of control
same,T/C,"dose: 6.25 mg/kg/injection, schedule: Q01DX009 (ip), vehicle: water, evaluated on day 45",142 % of control
same,T/C,"dose: 12.5 mg/kg/injection, schedule: Q01DX009 (ip), vehicle: water, evaluated on day 30",146 % of control
same,T/C,"dose: 12.5 mg/kg/injection, schedule: Q01DX009 (ip), vehicle: water, evaluated on day 45",141 % of control
same,survivor count,"dose: 25.0 mg/kg/injection, schedule: Q01DX009 (ip), vehicle: water",0 of 6 and 1 of 6
Cc1cc(N)c(C)c2ccncc12,survivor count,"dose: 2.5 mg/kg/injection, schedule: Q01DX009 (ip), vehicle: saline with Tween-80",6 of 6
same,survivor count,"dose: 5.0 mg/kg/injection, schedule: Q04DX003 (ip), vehicle: saline with Tween-80",3 of 6
same,survivor count,"dose: 10.0 mg/kg/injection, schedule: Q04DX003 (ip), vehicle: saline with Tween-80",0 of 6
[Ni].c1c[nH]cn1.c1c[nH]cn1.c1c[nH]cn1.c1c[nH]cn1.c1c[nH]cn1.c1c[nH]cn1,survivor count,"dose: 100.0 mg/kg/injection, schedule: Q01DX005 (ip), vehicle: saline",6 of 6
same,survivor count,[4],0 of 6
CCCCCCCCCCSCC(CO)NC(=O)/C=C/c1c(C)[nH]c(=O)[nH]c1=O (stereo not given),T/C,"dose: 25.0 mg/kg/injection, schedule: Q01DX009 (ip), vehicle: other","125, 130, 134 % of control"
same,T/C,"dose: 50.0 mg/kg/injection, schedule: Q01DX009 (ip), vehicle: distilled water + Tween-80",130 % of control
same,T/C,"dose: 50.0 mg/kg/injection, schedule: Q01DX009 (ip), vehicle: other",137 and 144 % of control
same,T/C,"dose: 100.0 mg/kg/injection, schedule: Q01DX009 (ip), vehicle: distilled water + Tween-80",140 and 141 % of control
same,survivor count,"dose: 100.0 mg/kg/injection, schedule: Q01DX009 (ip), vehicle: other",4 of 6 and 6 of 6
same,survivor count,"dose: 200.0 mg/kg/injection, schedule: Q01DX009 (ip), vehicle: distilled water + Tween-80",0 of 6 and 1 of 6
same,survivor count,"dose: 200.0 mg/kg/injection, schedule: Q01DX009 (ip), vehicle: other",0 of 6 and 2 of 6
same,survivor count,"dose: 400.0 mg/kg/injection, schedule: Q01DX009 (ip), vehicle: other",0 of 6
C=CCC(N)C(=O)O (stereo not given),survivor count,[4],0 of 5
Cc1ccc2c3nc4ccccc4c-3csc2c1,survivor count,"dose: 40.0 mg/kg/injection, schedule: Q01DX009 (ip), vehicle: saline",6 of 6
Nc1oc([N+](=O)[O-])cc1[N+](=O)[O-],survivor count,"dose: 400.0 mg/kg/injection, schedule: Q01DX009 (ip), vehicle: saline",1 of 6
COC(=O)C1=C(C(=O)OC)C2CC3C4CC=C5CC(OC(C)=O)CCC5(C)C4CCC3(C)C2=C(OC(C)=O)C1 (stereo not given),survivor count,[5],6 of 6
CCCCCCCCCCCCCCCC[N+](C)(C)C,T/C,"dose: 3.13 mg/kg/injection, schedule: Q01DX009 (ip), vehicle: saline",130 % of control
same,T/C,[6],125 and 130 % of control
same,survivor count,[6],3 of 6
same,survivor count,"dose: 12.5 mg/kg/injection, schedule: Q01DX009 (ip), vehicle: saline",1 of 6
same,survivor count,"dose: 12.5 mg/kg/injection, schedule: Q04DX003 (ip), vehicle: saline with Tween-80",6 of 6
same,survivor count,"dose: 25.0 mg/kg/injection, schedule: Q04DX003 (ip), vehicle: saline with Tween-80",4 of 6
same,survivor count,"dose: 100.0 mg/kg/injection, schedule: Q04DX003 (ip), vehicle: saline with Tween-80",0 of 6
same,survivor count,"dose: 200.0 mg/kg/injection, schedule: Q04DX003 (ip), vehicle: saline with Tween-80",0 of 6
same,survivor count,"dose: 400.0 mg/kg/injection, schedule: Q04DX003 (ip), vehicle: saline with Tween-80",0 of 6
CCC[CH2][Sn]([CH2]CCC)([CH2]CCC)[CH2]CCNCCCN(C)C,survivor count,"dose: 50.0 mg/kg/injection, schedule: Q01DX009 (ip), vehicle: saline",0 of 6
same,survivor count,"dose: 100.0 mg/kg/injection, schedule: Q01DX009 (ip), vehicle: saline",0 of 6
same,survivor count,"dose: 200.0 mg/kg/injection, schedule: Q01DX009 (ip), vehicle: saline",0 of 6 and 1 of 6
Nc1cc(C(=O)Nc2ccc(C3=NCCN3)cc2)cc(C(=O)Nc2ccc(C3=NCCN3)cc2)c1,T/C,"dose: 16.0 mg/kg/injection, schedule: Q01DX010 (ip), vehicle: saline",145 % of control
same,survivor count,"dose: 64.0 mg/kg/injection, schedule: Q01DX010 (ip), vehicle: saline",3 of 6
same,survivor count,"dose: 128.0 mg/kg/injection, schedule: Q01DX010 (ip), vehicle: saline",0 of 6
C=C1C(=O)OC2CC(C)C3OC3C(=O)C(C)(O)C(O)C(O)C12 (stereo not given) (tested in a mixture with another compound),T/C,"dose: 100.0 mg/kg/injection, schedule: Q01DX009 (ip), vehicle: Klucel (hydroxypropylcellulose) (HPC)",126 % of control
CO/N=C/c1ccc[n+](C)c1,survivor count,[5],1 of 6
c1cc2c3c(ccc2c2c1OCN(C1CCCCC1)C2)OCN(C1CCCCC1)C3,survivor count,"dose: 25.0 mg/kg/injection, schedule: Q01DX005 (ip), vehicle: Klucel (hydroxypropylcellulose) (HPC)",6 of 6
same,survivor count,"dose: 50.0 mg/kg/injection, schedule: Q01DX005 (ip), vehicle: Klucel (hydroxypropylcellulose) (HPC)",6 of 6
same,survivor count,[7],6 of 6
O=C1c2ccccc2NC2(C(=O)Nc3ccccc32)N1N1CCOCC1 (stereo not given),survivor count,[7],0 of 6
same,survivor count,"dose: 200.0 mg/kg/injection, schedule: Q01DX005 (ip), vehicle: Klucel (hydroxypropylcellulose) (HPC)",2 of 6
CC1(C)O[Se](=O)OC1(C)C,survivor count,[1],0 of 6
same,survivor count,[2],0 of 6
same,survivor count,[3],0 of 6
